In patent publication US20110229491A1 (published 2011):
Results are given in words; binding and its absence hold for the method and conditions named. Binding seen in cells or lysates may run through a third protein. Some entries that bind do so weakly or less than the wild type. Sequences can lack the tags named with a protein.

Target: T1, Minichromosome maintenance family protein 5 (MCM5), At2g07690, from Arabidopsis cell suspension culture (Arabidopsis) (UniProt O80786)
T1 sequence (looked up): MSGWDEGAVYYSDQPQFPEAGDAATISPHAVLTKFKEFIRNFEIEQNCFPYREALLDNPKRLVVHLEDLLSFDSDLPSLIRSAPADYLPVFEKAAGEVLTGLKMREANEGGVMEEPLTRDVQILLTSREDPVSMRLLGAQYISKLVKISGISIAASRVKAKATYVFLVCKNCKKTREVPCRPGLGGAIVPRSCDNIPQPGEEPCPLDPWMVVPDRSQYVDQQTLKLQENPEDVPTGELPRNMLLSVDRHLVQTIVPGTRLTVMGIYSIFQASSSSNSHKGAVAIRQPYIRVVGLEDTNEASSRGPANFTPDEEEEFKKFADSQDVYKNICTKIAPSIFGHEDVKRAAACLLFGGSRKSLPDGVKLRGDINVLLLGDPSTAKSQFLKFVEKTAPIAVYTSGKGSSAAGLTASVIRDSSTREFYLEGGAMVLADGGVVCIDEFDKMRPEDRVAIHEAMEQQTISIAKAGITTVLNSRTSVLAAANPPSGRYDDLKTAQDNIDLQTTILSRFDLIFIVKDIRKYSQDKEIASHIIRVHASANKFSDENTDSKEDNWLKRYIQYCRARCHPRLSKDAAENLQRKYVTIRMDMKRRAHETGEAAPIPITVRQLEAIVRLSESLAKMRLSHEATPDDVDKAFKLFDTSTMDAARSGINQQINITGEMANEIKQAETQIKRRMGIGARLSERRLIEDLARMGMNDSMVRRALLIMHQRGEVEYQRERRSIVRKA
Assay: tandem affinity purification from Arabidopsis cell culture, MALDI-TOF/TOF MS (co-purified, may be indirect)

B1: TAP-ETG1 (TAP-tagged ETG1 bait, Pro35S:TAP-ETG1) (protein, Arabidopsis, UniProt Q501D5 1-589, looked up)
chain: MGGPAYDCLTNPLGAVRFSFVNALSSGYDPASSVGKDWGVVDLFRHYFSDESAISQVPILDSSSIKWVQPKTLVRFRGMIQDMLGNEFYAGAYKDDSTWRTNKYSDVSQFPEGSSTEIQVWERRLLYCVPVPGKNQWTECSSQELKNRFLDLTGQNREKRVRVDEEMTDSMDSSTLEAGRNGSPFKKMKVGEATSSASESQVPQTSGIPPATSADSLPCLVKIYDSPESDLKLNDVVEFLGVLTFDPIVMMDTDTLDENSDALSEAESVQMPSGKVPRLHCLIHRKLETQHFLHGSSLLPEPKSPQIFKEIRESLMKYLTGLLGNDHIAAQFLLLHLLSKVHGRVDNVAVGKLSLNLIHLNKESMSIFGTQLSGALKSLLPFTQSIPLTIEYLNTASFGPKKDYGINRLMPGVLQIADGTHLILDETELQPGTLNSVGVENANLLKNLLECQKVEYDFQYYKMEMATDVQMLIFSEGKSNIMPADLVLPLQPSQVNSLEVITPETAETWRCYLATCKSLSHSIGQELQQVVENDLVAARQTDRSLGSQDLSRLLTMARMMSVSYGETTLSLEHWQMVLELERLRKERLK
With B1 the binding was “binds”.
